Results from one PubChem assay

From PubChem BioAssay record AID1053133 (Broad Institute, 2014).

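Vaccinia-infected cells with a two-color viral stage reporter; Venus fluorescence read on a plate reader; the cell line is not named here; timing not stated here. The test concentration is not given here. Percent change in Venus reporter signal; lower (more negative) values mean stronger inhibition of that viral stage.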

Values are in %. The controls that fix the scale are not given here. Common to all entries: measured here: Venus reporter, other viral stage. Part of the compounds only, not a random draw; the main read-out is not listed here.

CO[C@H]1O[C@H](CO)[C@@H](OC(=O)Nc2ccccc2-c2ccccc2)[C@H](OC(=O)Nc2ccccc2)[C@H]1OC(=O)Nc1ccccc1 gave activity change (Venus) -31.89%. CCCC#Cc1ccc2c(c1)O[C@H](CN(C)Cc1ccncc1)[C@@H](C)CN([C@H](C)CO)S2(=O)=O read activity change (Venus) -69.68%. C[C@H](CO)N1C[C@H](C)[C@H](CN(C)CC2CCCCC2)OCCCC[C@H](C)Oc2ccc(NC(=O)Nc3ccc4c(c3)OCO4)cc2C1=O read activity change (Venus) -59.46%. Result for O=C(C[C@@H]1CC[C@H]2[C@@H](COC[C@H](O)CN2Cc2cccc(C(F)(F)F)c2)O1)NCCc1ccccc1 was activity change (Venus) -36.35%. C[C@@H]1CN([C@H](C)CO)S(=O)(=O)c2ccc(-c3ccc(F)cc3)cc2O[C@@H]1CN(C)C(=O)Nc1ccccc1F gave activity change (Venus) -51.21%.

Cc1ccccc1S(=O)(=O)N1CCCCN2[C@H](CO)[C@H](c3ccc(-c4cccnc4)cc3)[C@H]2C1 read activity change (Venus) -30.44%. C[C@@H]1CN([C@H](C)CO)S(=O)(=O)c2ccc(-c3ccccc3)cc2O[C@@H]1CN(C)Cc1cccc(F)c1 gave activity change (Venus) -47.64%. Result for COc1ccccc1C#Cc1ccc2c(c1)O[C@H](CN(C)Cc1cccnc1)[C@H](C)CN([C@@H](C)CO)S2(=O)=O was activity change (Venus) -29.76%. Result for CCCNC(=O)N1[C@@H](C#N)[C@@H](c2ccc(C#Cc3ccc(F)cc3)cc2)[C@@H]1CO was activity change (Venus) -30.91%. With OC[C@H]1[C@@H](c2ccc(-c3ccc(F)cc3)cc2)[C@@H]2CN(Cc3cccnc3)CCCCN12 the assay gave activity change (Venus) -31.31%.

Result for COc1ccc(CN(C)C[C@@H]2OCCCC[C@@H](C)Oc3ccc(NS(=O)(=O)c4ccc(Cl)cc4)cc3C(=O)N([C@@H](C)CO)C[C@H]2C)cc1 was activity change (Venus) -53.27%. For C[C@@H]1CN([C@@H](C)CO)C(=O)c2cc(NC(=O)c3ccncc3)ccc2O[C@@H]1CN(C)Cc1ccc(Cl)c(Cl)c1 the result was activity change (Venus) -45.39%. C[C@H](CO)N1C[C@H](C)[C@@H](CN(C)Cc2ccncc2)Oc2cc(C#CC3CC3)ccc2S1(=O)=O gave activity change (Venus) -54.15%. Result for C[C@@H]1CN([C@@H](C)CO)S(=O)(=O)c2ccc(C#Cc3ccccc3F)cc2O[C@@H]1CN(C)C(=O)Cc1ccncc1 was activity change (Venus) -32.02%. For O=C(CC1CC1)N1CC(=O)N2[C@H](C1)[C@H](c1ccc(/C=C/c3ccccc3)cc1)[C@@H]2CO the result was activity change (Venus) -68.88%.

C[C@@H]1CN([C@H](C)CO)C(=O)Cc2cc(NS(=O)(=O)c3ccccc3)ccc2O[C@H]1CN(C)Cc1ccc(C(F)(F)F)cc1 read activity change (Venus) -30.23%. C[C@H]1CCCCO[C@@H](CN(C)C(=O)C2CCCCC2)[C@@H](C)CN([C@@H](C)CO)C(=O)c2cc(NC(=O)Nc3ccc(F)cc3)ccc2O1 read activity change (Venus) -34.51%. C[C@@H]1CCCCO[C@@H](CN(C)Cc2ccc(C(F)(F)F)cc2)[C@@H](C)CN([C@H](C)CO)C(=O)c2cc(NS(=O)(=O)c3ccc(Cl)cc3)ccc2O1 read activity change (Venus) -37.37%. O=S(=O)(Cc1ccccc1)N1CCCCN2[C@H](CO)[C@@H](c3ccc(-c4ccc(F)cc4)cc3)[C@H]2C1 read activity change (Venus) -43.02%. With O=C(C[C@H]1CC[C@H]2[C@@H](COC[C@@H](O)CN2Cc2ccc(Oc3ccccc3)cc2)O1)Nc1nccs1 the assay gave activity change (Venus) -49.15%.

COc1cccc(-c2ccc3c(c2)[C@H]2[C@H](CCN2C(=O)c2ccc4c(c2)OCO4)[C@@H](CO)N3C)c1 gave activity change (Venus) -65.23%. COc1ccc(S(=O)(=O)Nc2ccc3c(c2)C(=O)N([C@H](C)CO)C[C@H](C)[C@H](CN(C)S(=O)(=O)c2cccs2)OCCCC[C@H](C)O3)cc1 gave activity change (Venus) -24.54%. O=S(=O)(c1ccccc1)N1CC2(C1)[C@H](c1ccccc1)[C@H](CO)N2CC1CCCC1 read activity change (Venus) -40.17%. COc1ccccc1NC(=O)N1CC(=O)N2[C@H](C1)[C@@H](c1ccc(C#Cc3ccccc3)cc1)[C@@H]2CO gave activity change (Venus) -47.17%. C/C=C/c1ccc2c(c1)O[C@H](CN(C)Cc1cccc(F)c1)[C@H](C)CN([C@H](C)CO)S2(=O)=O gave activity change (Venus) -63.47%.

C[C@H](CO)N1C[C@H](C)[C@@H](CN(C)Cc2cccnc2)Oc2cc(C3=CCCCC3)ccc2S1(=O)=O read activity change (Venus) -53.63%. With C[C@H]1CN([C@@H](C)CO)C(=O)c2cccc(NC(=O)Nc3ccc(C(F)(F)F)cc3)c2O[C@H]1CN(C)C the assay gave activity change (Venus) -23.13%. For COc1ccccc1C#Cc1ccc2c(c1)O[C@H](CN(C)C(C)=O)[C@@H](C)CN([C@@H](C)CO)S2(=O)=O the result was activity change (Venus) -34.59%. Result for C[C@@H]1CN([C@@H](C)CO)C(=O)c2cc(NS(=O)(=O)c3ccc(F)cc3)ccc2O[C@@H](C)CCCCO[C@@H]1CN(C)C(=O)CCC(F)(F)F was activity change (Venus) -21.49%. With C[C@H]1CCCCO[C@@H](CN(C)C(=O)C2CCCCC2)[C@@H](C)CN([C@@H](C)CO)C(=O)c2cc(NC(=O)Cc3ccccc3)ccc2O1 the assay gave activity change (Venus) -32.29%.

COc1ccc(-c2ccc3c(c2)[C@@H]2[C@@H](CCN2C(=O)C2CC2)[C@H](CO)N3C)cc1 read activity change (Venus) -49.82%. For COc1ccc2c3c(n(C)c2c1)[C@@H](CO)N(CC1CC1)CC31CN(C(=O)c2ccc3c(c2)OCO3)C1 the result was activity change (Venus) -55.37%. Result for CCC(=O)N1CC(=O)N2[C@H](CO)[C@H](c3ccc(C#Cc4cccc(OC)c4)cc3)[C@H]2C1 was activity change (Venus) -61.71%. Result for O=C(C1CCC1)N1C[C@@H]2N[C@H](C1)C2c1ccc(-c2cncnc2)cc1 (stereo partly shown) was activity change (Venus) -45.88%.

2 of the entries, repeated:

C[C@H](CO)N1C[C@H](C)[C@@H](CN(C)Cc2cccnc2)Oc2cc(C3=CCCCC3)ccc2S1(=O)=O read activity change (Venus) -53.63%.
C[C@@H]1CN([C@H](C)CO)S(=O)(=O)c2ccc(-c3ccccc3)cc2O[C@@H]1CN(C)Cc1cccc(F)c1 read activity change (Venus) -47.64%.